About 4,300 (3.1%) of roughly 140,000 compounds were called active. The shares of active, inactive and inconclusive entries below differ from those in the screen.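 The calls were made as follows: active = readout at or below -70, meaning at least 70% loss of cells showing the perinucleolar compartment, a nuclear body marking cancer cells; inconclusive = readout between -30 and a set limit; inactive = the rest.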
Test: High Content Assay for Compounds that inhibit the Assembly of the Perinucleolar Compartment;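 also: plate controls were DMSO wells for no effect and camptothecin positive control wells for full effect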
Conditions: PC3M PTB-GFP, PNC prevalence imaging, 16 h; at 10 µM; active compounds read low
How it was run: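 PC3M cells stably expressing PTB-GFP, 750–1000 cells/well, treated 16 h at 37 °C with compound (23 nl of library stock), in duplicate. After paraformaldehyde fixation and Hoechst stain, imaged at 20x; PNC prevalence scored by image analysis.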

SMILES	activity change (PNC), negative = inhibition
CCc1ccc(C(=O)c2oc3nc(C)cc(C)c3c2N)cc1	inconclusive: -34.5%
Cn1c2ccccc2c(=O)c2c(=O)n(Cc3ccco3)c(COc3ccccc3)nc21	active: -87%
CCOC(=O)C1CCCN(Cc2c(Cl)cccc2Cl)C1 (stereo not given)	inconclusive: -34.4%
COc1ccc(OC)c(C(=O)c2ccccc2)c1	inconclusive: -33.3%
Cc1nc(C)c(C(=O)Nc2nc3c(C)cccc3s2)o1	inconclusive: -39.7%
COc1cccc2cc3c(=O)n(-c4ccccc4)nc-3oc12	inconclusive: -30.2%
O=C(CN1CCN(Cc2ccc(Cl)cc2)C1=O)NCCCN1CCOCC1	inconclusive: -45.1%
Cc1ccc(-n2nnnc2-c2ccco2)cc1	inactive: 28.4%
O=C(/C=C/c1ccco1)Nc1ccc(-c2nc3ccccc3[nH]2)cc1	inconclusive: -78.6%
O=C(CN(C(=O)CCNC(=O)c1ccco1)c1ccccc1)NC1CCCC1	inconclusive: -48.9%
COC(=O)Nc1ccc(S(=O)(=O)N(C)C)cc1	inconclusive: -51.8%
CC(C)CC(NC(=O)C(NC(=O)OC(C)(C)C)C(C)C)C(=O)NC(CCC(=O)OCc1ccccc1)C(N)=O (stereo not given)	inactive: -8.71%
C=CCn1c(SCC(=O)Nc2cc(NC(C)=O)ccc2OC)nnc1-c1cccnc1	inconclusive: -53%
Cc1cc(/C=N/NC(=O)C(O)(c2ccccc2)c2ccccc2)c(C)n1-c1ccc(C(=O)O)cc1	inconclusive: -63.9%
CN(C(=O)COC(=O)CCc1c[nH]c2ccccc12)C(c1ccccc1)c1ccccc1	inconclusive: -37.5%
Cc1cc(=O)oc(C)c1C(=O)NCc1ccccc1	inactive: 47%
Cc1ccc2[nH]c3c(c2c1)CCCC3C(N)=O (stereo not given)	inactive: -25%
CSc1nc2c(ccc3ccccc32)o1	inactive: -2.58%
NC(=O)c1ccc(N=Cc2ccc([N+](=O)[O-])s2)cc1	inconclusive: -54.4%
COC(=O)COc1nc(C)c(Br)c(OC)n1	inconclusive: -75.3%
CCn1c(CCNC(=O)c2ccc(OC)cc2)nnc1SCc1ccc(Cl)c(Cl)c1	inconclusive: -32%
Cc1sc2ncn(CC(=O)NCCCC(=O)N3CCN(c4ccccn4)CC3)c(=O)c2c1C	inconclusive: -61.7%
CSc1ncccc1C(=O)OCC(=O)Nc1cc(C(F)(F)F)ccc1N1CCOCC1	inconclusive: -37.2%

Of the compounds above, these have a thiophene ring, fused or not:
SMILES	activity change (PNC), negative = inhibition
NC(=O)c1ccc(N=Cc2ccc([N+](=O)[O-])s2)cc1	inconclusive: -54.4%
Cc1sc2ncn(CC(=O)NCCCC(=O)N3CCN(c4ccccn4)CC3)c(=O)c2c1C	inconclusive: -61.7%

The listing continues:

SMILES	activity change (PNC), negative = inhibition
COC(=O)Cc1c[nH]c2cccc(OCC(O)CN(Cc3ccc([N+](=O)[O-])cc3)C(C)(C)C)c12 (stereo not given)	inconclusive: -63.7%
Cc1cc2ncn(/N=C/c3cc(Br)ccc3O)c2cc1C	inconclusive: -43.3%
O=C(COC(=O)C1CCCO1)Nc1cccc(C(F)(F)F)c1 (stereo not given)	inconclusive: -69.4%
CC(Oc1ccc(-c2ccccc2)c(F)c1)c1ccn(S(=O)(=O)c2ccc(F)cc2)n1 (stereo not given)	active: -100%
S=c1[nH]cc(-c2ccccc2)n1-c1ccccc1Cl	inactive: 21.8%
O=S(=O)(NC1=NCCC1)c1cccc(NC(=S)NCCc2ccccc2)c1	inconclusive: -47.3%
Nc1nc(SCc2ccc(Cl)c(Cl)c2)n[nH]1	inactive: 1.71%
COc1ccc(-c2nnco2)cc1OC	inconclusive: -36%
COc1cc(CN(C(=S)NCC(=O)NC2CC2)C2CCCC2)cc(OC)c1OC	inconclusive: -67.4%
O=S(=O)(c1ccc(Cl)nc1)N1CCN(Cc2ccc3c(c2)OCO3)CC1	inactive: 1.87%
CC(=O)C1=C(O)C(=O)N(Cc2ccccc2)C1c1ccco1 (stereo not given)	inactive: 8.91%
COc1ccc(N2C(=O)C3CCCN3C2c2ccccc2OC)cc1 (stereo not given)	inconclusive: -55.7%
COc1ccc(/C=C/C=N/NC(=O)COc2ccc(OC)cc2)cc1	inconclusive: -50.1%
CCN(CC)S(=O)(=O)c1ccc(C)c(NC(=O)/C=C/c2cccs2)c1	inactive: 23%
CCOC(=O)c1nnn(-c2nonc2-n2cccc2)c1CN1CCC(C)CC1	inactive: 43%
Brc1ccc(-c2cnc3n2CCCC3)cc1	inconclusive: -56.8%
C=CCOc1ccc(/C=N/NC(=O)C(C)Sc2ccccn2)cc1OCC (stereo not given)	inactive: 17.5%
CC(=O)c1c(C(C)=O)c(C)n(Cc2ccccc2)c1C	inconclusive: -65.4%
Nc1nn(S(=O)(=O)c2cccc3nsnc23)cc1-c1ccc(Br)cc1	inconclusive: -44.4%
CCOC(=O)C1=C(CC)Nc2ccccc2N=C1NC(=O)c1ccc(S(=O)(=O)N(C)C)cc1	inconclusive: -38.9%
O=C(CSc1nc2ccccc2o1)N1CCCC1	inactive: -26.7%
COc1ccc(N2CCN(C(=O)CCNS(=O)(=O)c3ccc(Br)s3)CC2)cc1	inactive: -16%
CN1CCc2c(sc3c2C(=O)NC(c2ccccc2)N3)C1 (stereo not given)	inconclusive: -67.5%

SMILES	activity change (PNC), negative = inhibition
CC(=O)c1c(N2CCN(Cc3ccccc3)CC2)nc(=S)n(Cc2ccccc2)c1C	inconclusive: -42.5%
COc1cc(C(=O)OC(C)CN2CCOCC2)cc(OC)c1OC (stereo not given)	inconclusive: -30.3%
Cc1ccc(C)c(S(=O)(=O)N2CCN(CC(=O)Nc3ccc4c(c3)CCC4)CC2)c1	inactive: -12.6%
CC(=O)c1cccc(NC(=O)C(OC(=O)c2cccs2)c2ccccc2)c1 (stereo not given)	inconclusive: -56.7%
CC(C)(C)NC(=O)NC(=O)COC(=O)Cc1coc2ccc3ccccc3c12	inconclusive: -69.3%
COc1ccc(S(=O)(=O)N2CCCCC2)cc1Br	inactive: -11%
COc1ccc(-c2nnc(SCC(=O)Nc3cc(S(=O)(=O)N4CCCCC4)ccc3Cl)n2N)cc1	inactive: 45.3%
O=C(CCn1cnc2ccccc2c1=O)Nc1nc2c(s1)CCCC2	inconclusive: -56.7%
O=C(NCC1CCCO1)c1ccc2c(=O)n(CCc3ccccc3)c(=O)[nH]c2c1 (stereo not given)	inconclusive: -32.2%
CCCCSc1nc(N)c(NC(=O)c2ccco2)c(=O)[nH]1	inconclusive: -74.4%
Cc1cc(N2C(=O)C(=O)/C(=C(/O)c3ccc(F)cc3)C2c2ccc(Cl)cc2)no1 (stereo not given)	inconclusive: -79%
Cc1ccc(NC(=O)N2CCC(C(=O)NCCC3=CCCCC3)CC2)cc1	inactive: 47.1%
COc1ccc2[nH]c(O)c(NC(C)=O)c2c1	inconclusive: -33.3%
Cc1c(NC(=O)CSc2nncc3ccccc23)c(=O)n(-c2ccccc2)n1C	inconclusive: -75.4%
O=C1CC(c2ccco2)CC(O)=C1C=NCCO (stereo not given)	inactive: 9.39%
CC(=O)c1ccc(NC(=O)Cn2nc(C)cc2C)cc1	inconclusive: -39.4%
O=S(=O)(NCc1ccccc1)c1ccc(S(=O)(=O)N(Cc2ccccn2)C2CCCC2)cc1	inconclusive: -41.2%
CC(=O)Nc1cc(Cl)ccc1OS(=O)(=O)c1ccc(C)cc1	inconclusive: -45.3%
O=C(C1CC1)N1CCN=C1SCc1cccc(C(F)(F)F)c1	inconclusive: -49.4%
c1cncc(CNc2c3c(nc4nnnn24)CCCC3)c1	inconclusive: -52.4%
c1ccc(Oc2nc(NCc3ccco3)nc(NCc3ccco3)n2)cc1	inconclusive: -35.6%
CC(C)(C)NC(=O)c1cc([N+](=O)[O-])ccc1N1CCCCC1	inactive: 11%
Cc1nnc(NC(=O)CC(CN(C)S(=O)(=O)c2ccccc2)c2ccccc2)s1 (stereo not given)	inconclusive: -44.8%

SMILES	activity change (PNC), negative = inhibition
CCOC(=O)Cc1csc(/C(=N/O)C(N)=O)n1	inactive: -0.163%
Cc1ccc(-c2nc3cnccn3c2Nc2ccc3c(c2)OCO3)o1	inconclusive: -56.8%
O=C(Nc1ccc2ccccc2c1)[C@@H]1C[C@H]1[C@@H](NP(=O)(c1ccccc1)c1ccccc1)c1ccccc1	active: -119%
CN(C)c1ccc(/C=N/NC(=O)c2ccc(Cn3cc(Br)cn3)o2)cc1	inconclusive: -43.4%
CC1CCN(c2nc(-c3ccccc3)c(C#N)c(=O)[nH]2)CC1	inactive: 30.6%
O=C(CCl)NNc1cccc(Cl)n1	inconclusive: -60.4%
CC1CN(C(=O)CCN2C(=O)c3ccccc3C2=O)CC(C)O1 (stereo not given)	inconclusive: -50.1%
O=[N+]([O-])c1ccc(/C=N/NC(=S)Nc2ccccc2C(F)(F)F)o1	inconclusive: -30.2%
Cn1c(CSCc2ccc(Cl)cc2)nnc1SCC(=O)Nc1nccs1	inconclusive: -46.8%
Fc1ccccc1CN1CCCCCCC1	inconclusive: -40%
O=C(Nc1ccc(S(=O)(=O)NC2CCCCC2)cc1)c1ccc(Br)o1	inconclusive: -64.3%
CC(=O)N1CCc2cc(C(=O)CN3CCN(C(=O)c4ccco4)CC3)ccc21	inconclusive: -42.1%
O=C(CSc1nnc(Cn2nnc3ccccc32)o1)N(Cc1ccc(F)cc1)c1ccccc1	inconclusive: -39.7%
CCc1ccc(CC)c(S(=O)(=O)Nc2ccc(O)c(C(=O)O)c2)c1	inconclusive: -55.1%
O=c1cc(NS(=O)(=O)c2ccccc2)nc(SCc2ccccc2Cl)[nH]1	inconclusive: -37.5%
CCCN(C(=O)Cc1nc(N)n[nH]1)C1(C(=O)Nc2c(C)cccc2C)CCCCC1	inconclusive: -66%
C=CCn1c(Cc2nc3ccc(Cl)cc3[nH]2)n[nH]c1=S	inconclusive: -57%
Cc1nc(SCC(=O)N2CCN(C(=O)c3ccco3)CC2)c2c(C)c(C)sc2n1	inconclusive: -40.9%
COc1cc(OC)c2c(C)c(Cl)c(=O)oc2c1	inactive: -19.5%
Cc1cc(NCC(C)C)n2ncnc2n1	inconclusive: -58.1%
CCOC(=O)/C=C1\SCC(=O)N1CC(=O)Nc1ccc(OC)c(OC)c1	inconclusive: -37.1%

Not a retest: an excerpt of the list.
SMILES	activity change (PNC), negative = inhibition
CCc1ccc(C(=O)c2oc3nc(C)cc(C)c3c2N)cc1	inconclusive: -34.5%
Cn1c2ccccc2c(=O)c2c(=O)n(Cc3ccco3)c(COc3ccccc3)nc21	active: -87%
CCOC(=O)C1CCCN(Cc2c(Cl)cccc2Cl)C1 (stereo not given)	inconclusive: -34.4%
COc1ccc(OC)c(C(=O)c2ccccc2)c1	inconclusive: -33.3%

— PubChem BioAssay AID2417 (National Center for Advancing Translational Sciences (NCATS), 2010)
